Test results: article PMC9424285
Results are given in words; binding and its absence hold for the method and conditions named. Binding seen in cells or lysates may run through a third protein. Some results given as binding are weak or reduced against the parent protein; the word gives no strength.

Amino acid sequences for entries named in this document (tags omitted). A change or cut given only in a name is not applied to a line headed by its entry.
UniProt Q05397: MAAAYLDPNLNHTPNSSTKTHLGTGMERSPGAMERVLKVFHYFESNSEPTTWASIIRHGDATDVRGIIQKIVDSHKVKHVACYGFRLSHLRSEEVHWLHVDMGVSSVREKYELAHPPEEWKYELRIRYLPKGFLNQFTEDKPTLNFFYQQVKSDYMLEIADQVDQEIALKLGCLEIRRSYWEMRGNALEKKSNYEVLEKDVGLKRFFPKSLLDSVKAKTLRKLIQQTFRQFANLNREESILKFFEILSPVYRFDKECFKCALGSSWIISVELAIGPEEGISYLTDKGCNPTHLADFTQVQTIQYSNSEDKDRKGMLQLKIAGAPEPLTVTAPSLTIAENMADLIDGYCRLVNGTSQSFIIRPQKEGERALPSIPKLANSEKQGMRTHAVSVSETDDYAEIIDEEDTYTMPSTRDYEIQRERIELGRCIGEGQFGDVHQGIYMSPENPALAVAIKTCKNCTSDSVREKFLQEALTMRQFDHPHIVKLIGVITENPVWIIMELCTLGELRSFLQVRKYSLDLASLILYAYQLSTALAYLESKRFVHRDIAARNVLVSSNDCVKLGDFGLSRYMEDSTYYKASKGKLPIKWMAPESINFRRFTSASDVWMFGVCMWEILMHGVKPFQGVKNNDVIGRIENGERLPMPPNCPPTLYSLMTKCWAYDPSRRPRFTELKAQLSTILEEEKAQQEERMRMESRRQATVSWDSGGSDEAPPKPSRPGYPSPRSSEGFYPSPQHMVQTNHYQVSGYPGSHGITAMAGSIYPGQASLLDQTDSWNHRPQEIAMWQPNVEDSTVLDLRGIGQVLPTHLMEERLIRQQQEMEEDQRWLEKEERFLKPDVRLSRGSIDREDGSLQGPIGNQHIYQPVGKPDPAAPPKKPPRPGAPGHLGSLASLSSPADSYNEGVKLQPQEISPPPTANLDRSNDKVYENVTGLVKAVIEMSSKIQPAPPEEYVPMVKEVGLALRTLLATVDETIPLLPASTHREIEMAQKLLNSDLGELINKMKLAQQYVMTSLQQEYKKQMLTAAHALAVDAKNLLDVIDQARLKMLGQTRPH
UniProt P23743: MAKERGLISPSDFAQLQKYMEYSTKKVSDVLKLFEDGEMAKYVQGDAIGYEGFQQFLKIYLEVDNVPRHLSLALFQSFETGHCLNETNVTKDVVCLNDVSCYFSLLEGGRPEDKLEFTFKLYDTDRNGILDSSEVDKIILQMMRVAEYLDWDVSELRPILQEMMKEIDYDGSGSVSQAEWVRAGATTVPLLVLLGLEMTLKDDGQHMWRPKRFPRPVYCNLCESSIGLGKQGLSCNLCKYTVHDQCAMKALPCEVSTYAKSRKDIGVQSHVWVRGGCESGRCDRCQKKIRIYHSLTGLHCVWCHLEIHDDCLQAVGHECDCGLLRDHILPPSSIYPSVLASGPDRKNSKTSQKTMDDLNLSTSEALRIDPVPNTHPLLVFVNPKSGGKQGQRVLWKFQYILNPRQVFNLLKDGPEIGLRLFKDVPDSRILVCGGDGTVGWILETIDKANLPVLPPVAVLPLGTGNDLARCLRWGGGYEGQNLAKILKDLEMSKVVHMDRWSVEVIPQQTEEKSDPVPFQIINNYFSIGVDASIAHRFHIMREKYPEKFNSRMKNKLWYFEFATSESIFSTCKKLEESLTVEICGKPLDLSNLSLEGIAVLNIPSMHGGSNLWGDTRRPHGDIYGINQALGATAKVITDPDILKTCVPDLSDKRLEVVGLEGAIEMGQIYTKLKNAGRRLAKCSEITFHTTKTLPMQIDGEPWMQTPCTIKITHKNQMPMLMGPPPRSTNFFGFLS
UniProt P27986: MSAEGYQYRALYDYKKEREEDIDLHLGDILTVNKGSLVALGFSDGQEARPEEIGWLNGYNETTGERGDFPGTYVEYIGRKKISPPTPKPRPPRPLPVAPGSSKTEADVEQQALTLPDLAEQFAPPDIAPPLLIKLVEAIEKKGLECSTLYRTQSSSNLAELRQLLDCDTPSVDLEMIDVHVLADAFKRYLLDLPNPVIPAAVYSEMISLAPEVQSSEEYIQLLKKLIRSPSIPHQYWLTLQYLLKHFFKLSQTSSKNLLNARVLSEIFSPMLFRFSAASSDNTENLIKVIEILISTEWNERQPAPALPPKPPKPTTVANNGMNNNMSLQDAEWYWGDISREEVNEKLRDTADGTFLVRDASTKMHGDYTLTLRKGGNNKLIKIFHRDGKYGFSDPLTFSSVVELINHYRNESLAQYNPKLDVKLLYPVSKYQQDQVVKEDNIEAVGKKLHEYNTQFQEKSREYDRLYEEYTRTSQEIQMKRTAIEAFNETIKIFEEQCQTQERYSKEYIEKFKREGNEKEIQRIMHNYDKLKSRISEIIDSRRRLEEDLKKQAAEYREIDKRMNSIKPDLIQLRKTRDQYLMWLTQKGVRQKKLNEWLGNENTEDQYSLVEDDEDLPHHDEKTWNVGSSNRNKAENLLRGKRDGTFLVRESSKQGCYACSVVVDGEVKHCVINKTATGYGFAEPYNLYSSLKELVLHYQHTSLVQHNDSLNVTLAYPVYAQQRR

Key:
[1] = biological target: focal adhesion kinase (FAK) (human (endogenous in KYSE410 and KYSE510)) (UniProt Q05397); test: co-IP; immunoprecipitation-immunoblotting of DGKα and FAK at the plasma membrane; control, vector or DGKα Y335F mutant KYSE410 and KYSE510 cells treated with CCL22 (50 ng/ml)
[2] = biological target: T1, C-C motif chemokine receptor 4 (CCR4) (human (endogenous in KYSE410 and KYSE510)) (UniProt P51679); test: co-IP; immunoprecipitation-immunoblotting of KYSE410 and KYSE510 cells treated with CM from pol-TAMs, CM from pri-TAMs or CCL22 (50 ng/ml)
T1 sequence: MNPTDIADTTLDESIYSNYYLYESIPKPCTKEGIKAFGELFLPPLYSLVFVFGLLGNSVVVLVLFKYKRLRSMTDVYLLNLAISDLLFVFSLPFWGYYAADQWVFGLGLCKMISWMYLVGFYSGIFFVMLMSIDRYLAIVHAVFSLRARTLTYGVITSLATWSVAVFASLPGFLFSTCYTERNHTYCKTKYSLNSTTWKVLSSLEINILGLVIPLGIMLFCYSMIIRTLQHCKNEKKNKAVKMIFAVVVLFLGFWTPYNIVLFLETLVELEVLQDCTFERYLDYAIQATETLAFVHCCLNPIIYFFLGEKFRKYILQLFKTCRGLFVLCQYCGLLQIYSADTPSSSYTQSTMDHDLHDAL

[3] = biological target: T2, phospholipase C-γ1 (PLC-γ1) (human (endogenous in KYSE410 and KYSE510)) (UniProt P19174); test: co-IP; immunoprecipitation-immunoblotting of KYSE410 or KYSE510 cells treated with CCL22 (50 ng/ml); PLC-γ1 against its partners
T2 sequence: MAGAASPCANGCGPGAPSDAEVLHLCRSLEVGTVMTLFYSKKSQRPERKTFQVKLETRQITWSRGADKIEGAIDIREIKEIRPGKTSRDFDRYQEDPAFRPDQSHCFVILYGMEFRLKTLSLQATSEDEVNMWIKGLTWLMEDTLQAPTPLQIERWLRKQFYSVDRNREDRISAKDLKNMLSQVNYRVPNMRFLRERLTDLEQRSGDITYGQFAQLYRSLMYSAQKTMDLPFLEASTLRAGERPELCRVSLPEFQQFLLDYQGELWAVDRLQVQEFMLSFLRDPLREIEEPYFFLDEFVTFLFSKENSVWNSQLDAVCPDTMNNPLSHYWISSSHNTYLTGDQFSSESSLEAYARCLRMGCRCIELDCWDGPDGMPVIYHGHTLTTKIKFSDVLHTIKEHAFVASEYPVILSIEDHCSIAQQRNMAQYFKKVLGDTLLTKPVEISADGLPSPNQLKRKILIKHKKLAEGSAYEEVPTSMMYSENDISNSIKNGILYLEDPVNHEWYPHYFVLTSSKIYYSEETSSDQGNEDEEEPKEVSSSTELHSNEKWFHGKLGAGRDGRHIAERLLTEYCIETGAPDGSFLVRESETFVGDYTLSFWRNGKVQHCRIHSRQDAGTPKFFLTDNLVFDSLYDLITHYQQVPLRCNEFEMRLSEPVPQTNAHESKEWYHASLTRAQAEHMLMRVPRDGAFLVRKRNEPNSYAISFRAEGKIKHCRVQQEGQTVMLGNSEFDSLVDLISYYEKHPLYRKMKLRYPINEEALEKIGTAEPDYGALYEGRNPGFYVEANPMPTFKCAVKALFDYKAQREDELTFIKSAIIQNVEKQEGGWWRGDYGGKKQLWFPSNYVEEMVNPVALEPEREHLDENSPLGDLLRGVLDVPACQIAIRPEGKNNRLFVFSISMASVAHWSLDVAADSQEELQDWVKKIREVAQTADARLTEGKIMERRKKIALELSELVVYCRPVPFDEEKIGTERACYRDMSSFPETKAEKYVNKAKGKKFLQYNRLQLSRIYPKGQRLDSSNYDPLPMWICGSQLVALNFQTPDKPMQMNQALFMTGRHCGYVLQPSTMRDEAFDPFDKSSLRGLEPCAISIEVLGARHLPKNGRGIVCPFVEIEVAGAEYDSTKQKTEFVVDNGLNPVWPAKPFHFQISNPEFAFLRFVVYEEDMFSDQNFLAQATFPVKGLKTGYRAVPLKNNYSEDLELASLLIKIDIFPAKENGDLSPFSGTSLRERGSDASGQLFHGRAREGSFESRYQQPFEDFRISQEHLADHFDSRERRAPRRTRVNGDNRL

[4] = biological target: focal adhesion kinase (FAK) (human (endogenous in KYSE410 and KYSE510)) (UniProt Q05397); test: condition: only cells with CCR4 siRNA, PLC-γ1 siRNA or BAPTA-AM (10 μM); co-IP; immunoprecipitation-immunoblotting of DGKα and FAK at the plasma membrane; KYSE410 and KYSE510 cells with CCR4 siRNA, PLC-γ1 siRNA or the Ca2+ chelator BAPTA-AM (10 μM, 90 min) and then CCL22 (50 ng/ml)

Substance	binding [1]	binding [2]	binding [3]	binding [4]
Flag-DGKα Y335F (from UniProt P23743 1-735) (enzyme)	no binding			
PI3K regulatory subunit p85α (from UniProt P27986 1-724)		no binding		
focal adhesion kinase (FAK) (from UniProt Q05397 1-1052) (enzyme)			no binding	
diacylglycerol kinase α (DGKα) (from UniProt P23743 1-735) (enzyme)	binds		binds	no binding
